For assay [1], the target named is GFP-STIL. Description: co-IP; HEK293T cells co-expressing GFP-STIL with Myc-Plk4 and/or Cep131 (WT or 2A); GFP-magnetic beads; immunoblotting (Fig. 5a, b). (In general: A western blot detects proteins with antibodies after separation by electrophoresis.)
Assay [2] deals with GFP-STIL. As to the kind of experiment: condition: only with kinase-dead Myc-Plk4-KD co-expressed; co-IP; HEK293T cells co-expressing GFP-STIL, HA-Cep131 and kinase-dead Myc-Plk4-KD; GFP-magnetic beads; immunoblotting (Fig. 5c).

Results are given in words; binding and its absence hold for the method and conditions named. Binding seen in cells or lysates may run through a third protein. For some assays here: A result given as binding can be weak or reduced; the word gives no strength. Where a sequence is shown, tags or fusion partners need not be part of it.

B1: HA-Cep131-WT (protein, UniProt Q9UPN4 1-1083)
chain: MKGTRAIGSVPERSPAGVDLSLTGLPPPVSRRPGSAATTKPIVRSVSVVTGSEQKRKVLEATGPGGSQAINNLRRSNSTTQVSQPRSGSPRPTEPTDFLMLFEGSPSGKKRPASLSTAPSEKGATWNVLDDQPRGFTLPSNARSSSALDSPAGPRRKECTVALAPNFTANNRSNKGAVGNCVTTMVHNRYTPSERAPPLKSSNQTAPSLNNIIKAATCEGSESSGFGKLPKNVSSATHSARNNTGGSTGLPRRKEVTEEEAERFIHQVNQATVTIQRWYRHQVQRRGAGAARLEHLLQAKREEQRQRSGEGTLLDLHQQKEAARRKAREEKARQARRAAIQELQQKRALRAQKASTAERGPPENPRETRVPGMRQPAQELSPTPGGTAHQALKANNTGGGLPAAGPGDRCLPTSDSSPEPQQPPEDRTQDVLAQDAAGDNLEMMAPSRGSAKSRGPLEELLHTLQLLEKEPDVLPRPRTHHRGRYAWASEVTTEDDASSLTADNLEKFGKLSAFPEPPEDGTLLSEAKLQSIMSFLDEMEKSGQDQLDSQQEGWVPEAGPGPLELGSEVSTSVMRLKLEVEEKKQAMLLLQRALAQQRDLTARRVKETEKALSRQLQRQREHYEATIQRHLAFIDQLIEDKKVLSEKCEAVVAELKQEDQRCTERVAQAQAQHELEIKKLKELMSATEKARREKWISEKTKKIKEVTVRGLEPEIQKLIARHKQEVRRLKSLHEAELLQSDERASQRCLRQAEELREQLEREKEALGQQERERARQRFQQHLEQEQWALQQQRQRLYSEVAEERERLGQQAARQRAELEELRQQLEESSSALTRALRAEFEKGREEQERRHQMELNTLKQQLELERQAWEAGRTRKEEAWLLNREQELREEIRKGRDKEIELVIHRLEADMALAKEESEKAAESRIKRLRDKYEAELSELEQSERKLQERCSELKGQLGEAEGENLRLQGLVRQKERALEDAQAVNEQLSSERSNLAQVIRQEFEDRLAASEEETRQAKAELATLQARQQLELEEVHRRVKTALARKEEAVSSLRTQHEAAVKRADHLEELLEQHRRPTPSTK
Turning to B1, the binding result with GFP-STIL [1] is given as “binds”; with GFP-STIL [2] it was “no binding”.

The record behind these values is article PMC6662699.
